Screening data, single-dose tests

The chains behind the UniProt entries cited, without tags or fusion partners. Residues count along the entry.
UniProt Q4DA54, 1-478: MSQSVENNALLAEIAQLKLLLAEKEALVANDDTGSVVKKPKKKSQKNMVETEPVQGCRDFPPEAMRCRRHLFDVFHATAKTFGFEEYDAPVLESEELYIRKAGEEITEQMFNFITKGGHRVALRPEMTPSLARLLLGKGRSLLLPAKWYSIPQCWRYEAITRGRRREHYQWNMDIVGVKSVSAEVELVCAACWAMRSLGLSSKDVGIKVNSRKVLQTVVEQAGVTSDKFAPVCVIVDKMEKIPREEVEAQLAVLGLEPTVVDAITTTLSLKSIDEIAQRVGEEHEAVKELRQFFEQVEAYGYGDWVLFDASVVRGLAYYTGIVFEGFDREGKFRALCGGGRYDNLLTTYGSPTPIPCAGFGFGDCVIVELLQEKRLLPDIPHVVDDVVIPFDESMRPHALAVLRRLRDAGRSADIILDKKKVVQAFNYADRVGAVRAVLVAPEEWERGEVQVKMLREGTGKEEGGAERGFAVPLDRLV

Results are given as percent effect.
The controls that fix the scale are not given in the record; negative values are as filed.
The compounds are a random part of those screened.
A dash means the value is not listed here; it may have been measured.

Toxoplasma: 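Assay of Toxoplasma gondii numbers, read through their beta-galactosidase reporter with a colour substrate. Tested at 10 µM. The record gives no direction; the compounds picked for IC50 retests had high values, so higher reads as fewer parasites. Size under these conditions: about 67,000 compounds, about 260 of them at 50% or above in at least one test.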
TcHisRS: 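Histidine-tRNA ligase, Trypanosoma cruzi CL Brener (UniProt Q4DA54). Enzyme assay of histidyl-tRNA synthetase; the read-out is not stated. Tested at 30 µM. Higher reads as stronger inhibition (inferred: compounds with an IC50 in retests scored well above the rest). Size under these conditions: about 69,000 compounds, about 31 of them at 50% or above in at least one test.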

| # | structure | Toxoplasma | TcHisRS |
|---|---|---|---|
| 1 | `NC(=O)COc1ccc(CNCc2cc(F)ccc2F)cc1` | - | 3.125 |
| 2 | `CN1C(=O)C(C)(C)COc2ccc(NS(=O)(=O)Cc3ccccc3)cc21` | 3.46 | 5.528 |
| 3 | `CNC(=O)CCOC(=O)c1cccc(-n2ccc(C(F)(F)F)n2)c1` | -37.25 | 5.455 |
| 4 | `CCOC1CC2(CCN(Cc3nccn3C)CC2)C1` | - | 6.557 |
| 5 | `CCn1cc(S(=O)(=O)NC(CO)Cc2c[nH]c3ccccc23)cn1` (configuration not stated) | -0.5446 | 7.792 |
| 6 | `CC1CCC(NS(=O)(=O)CC(=O)NC(C2CC2)C2CC2)CC1` (configuration not stated) | -10.46 | 12.87 |
| 7 | `COc1ccnc(NC(=O)c2cscn2)c1` | -6.456 | 7.097 |
| 8 | `CS(=O)(=O)N1CCC(CNC(=O)C2CCCC2)CC1` | 22.2 | 9.135 |
| 9 | `CN(C)C(=O)N1C[C@@H]2CC[C@H](C1)N(Cc1nnc(-c3ccccc3)o1)C2` | - | 9.901 |
| 10 | `O[C@@H]1C[C@H]2CN(Cc3ccsc3)[C@@H](Cc3ccccc3)CN2C1` | - | 4.286 |
| 11 | `CC1CN(C(=O)c2ccn(C)c(=O)c2)c2ccccc2NC1=O` (configuration not stated) | 17.27 | 3.097 |
| 12 | `Cc1cccc(NCC(=O)NC2(C#N)CCCC2)c1C(=O)N1CCCC1` | 10.79 | 10.83 |
| 13 | `COCCN(Cc1ccoc1)C(=O)c1ccccn1` | 4.258 | 1 |
| 14 | `O=C(NCC1COCc2c(-c3cccnc3)nnn2C1)c1cccs1` (configuration not stated) | - | 3.825 |
| 15 | `CCS(=O)(=O)c1ccccc1N1CCC(NC(=O)NC2CCCC2)CC1` | 3.016 | 1.916 |
| 16 | `O=C(NS(=O)(=O)Cc1ccc(F)cc1)C1CCOc2ccccc21` (configuration not stated) | -4.519 | 9.677 |
| 17 | `O=C(c1cccc(N2CCCC2=O)c1)N1CCCC(n2cncn2)C1` (configuration not stated) | 12 | 3.759 |
| 18 | `COc1cc(CNCCn2ccnc2)cc2c1OCO2.Cl` | 9.205 | - |
| 19 | `COCC(=O)N1CCOC(c2ccc(N(C)C)cn2)C1` (configuration not stated) | 3.94 | 8.889 |
| 20 | `Cc1nc(-c2cc(C(=O)N3CCCN(C)CC3)c3ccccn23)cn1C` | - | 6.897 |
| 21 | `COc1cccc2c1OCC(CNC(=O)CN(C)C1CCCC1)C2` (configuration not stated) | -0.1394 | 10.87 |
| 22 | `O=C(NCCO)Nc1cnc2cc(Cl)ccc2c1O` | -4.524 | 5.319 |
| 23 | `CCCC(=O)NCC1CCCN(Cc2cc(C)c(C)o2)C1` (configuration not stated) | 15.5 | 7.059 |
| 24 | `Cc1noc(C)c1-c1nc(C2CCCNC2)ccc1CO` (configuration not stated) | - | 6.084 |
| 25 | `CC(C)CC(NC(=O)c1cccs1)c1nc2cccnc2n1C` (configuration not stated) | 3.169 | 2.326 |
| 26 | `CN1CCc2c(C#N)c(NCCN3CCOCC3)n3cnnc3c2C1` | -4.406 | 4.878 |
| 27 | `Cc1n[nH]c(CCC(=O)N2CCOC(Cc3ccc(F)cc3)C2)c1C` (configuration not stated) | 5.049 | 5.028 |

Some entries from above, unchanged:

- COc1ccnc(NC(=O)c2cscn2)c1 | Toxoplasma: -6.456%; TcHisRS: 7.097%
- O=C(NS(=O)(=O)Cc1ccc(F)cc1)C1CCOc2ccccc21 (configuration not stated) | Toxoplasma: -4.519%; TcHisRS: 9.677%
- CC1CN(C(=O)c2ccn(C)c(=O)c2)c2ccccc2NC1=O (configuration not stated) | Toxoplasma: 17.27%; TcHisRS: 3.097%

Measurements from “University of Dundee, Small-Polar-MMV Screening Library” (2021), ChEMBL document CHEMBL3988442.